No constants are given. Whether binding was seen depends on the method and setting. Binding seen in cells or lysates may run through a third protein. Some results given as binding are weak or reduced against the parent protein; the word gives no strength.
Columns and labels:
[1] = biological target: T1, hnRNP F (human (endogenous in 293)) (UniProt P52597); experiment: co-IP; endogenous SRSF10 and endogenous hnRNP F, H and K of 293 cells (Figures S2B-S2E, not shown); which protein was precipitated is not given
T1 sequence: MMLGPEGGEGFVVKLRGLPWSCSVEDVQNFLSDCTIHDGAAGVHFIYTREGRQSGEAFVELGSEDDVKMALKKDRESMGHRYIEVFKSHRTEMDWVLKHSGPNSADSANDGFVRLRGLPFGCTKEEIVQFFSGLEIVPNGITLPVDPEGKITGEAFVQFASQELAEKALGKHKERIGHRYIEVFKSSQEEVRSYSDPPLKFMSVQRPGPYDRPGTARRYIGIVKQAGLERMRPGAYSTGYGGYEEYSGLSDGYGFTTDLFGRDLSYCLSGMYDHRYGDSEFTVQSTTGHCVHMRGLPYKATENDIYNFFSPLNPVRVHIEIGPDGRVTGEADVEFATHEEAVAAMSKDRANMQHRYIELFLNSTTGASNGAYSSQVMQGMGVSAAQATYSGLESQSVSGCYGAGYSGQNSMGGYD

The chains behind the UniProt entries cited, without tags or fusion partners.
UniProt O75494: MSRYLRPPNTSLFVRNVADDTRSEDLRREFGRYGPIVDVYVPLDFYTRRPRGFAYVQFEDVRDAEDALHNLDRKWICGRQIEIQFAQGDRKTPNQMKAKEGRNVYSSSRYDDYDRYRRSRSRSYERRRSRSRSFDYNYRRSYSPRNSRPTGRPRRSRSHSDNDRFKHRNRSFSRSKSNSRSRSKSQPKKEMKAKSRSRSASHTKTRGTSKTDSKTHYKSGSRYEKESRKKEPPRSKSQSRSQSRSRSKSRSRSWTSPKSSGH

[2] = biological target: hnRNP K (human (endogenous in 293)) (UniProt P61978); experiment: as above
[3] = biological target: T1, hnRNP F (human (endogenous in 293)); experiment: co-IP; as a1, extracts of cells treated with oxaliplatin; anti-hnRNP F and anti-hnRNP H immunoprecipitates blotted with anti-FLAG
[4] = biological target: T1, hnRNP F (human (endogenous in 293)); experiment: as above; remark: listed apart in the source
[5] = biological target: T1, hnRNP F (human (endogenous in 293)); experiment: co-IP; extracts of 293 cells expressing FLAG-SRSF10, RS1-FLAG, RS2-FLAG or RS1-ΔΔ-FLAG, lysed in NET-2 buffer (50 mM Tris-HCl pH 7.4, 150 mM NaCl, 0.05% NP-40), treated with RNase A; anti-hnRNP F, H or K antibodies on protein G magnetic beads, overnight at 4°C; blot with anti-FLAG; cells treated or not with oxaliplatin
[6] = biological target: hnRNP K (human (endogenous in 293)) (UniProt P61978); experiment: as above

Substance: endogenous SRSF10 (from UniProt O75494 1-262)
- binding [1]: binds
- binding [2]: binds

Substance: FLAG-SRSF10 (from UniProt O75494 1-262)
- binding [3]: binds weakly
- binding [4]: no binding (condition: cells treated with oxaliplatin)
- binding [5]: binds
- binding [6]: binds
